Measured values from PubChem BioAssay AID743255 (National Center for Advancing Translational Sciences (NCATS), 2014).
The whole screen tested about 390,000 compounds, of which about 910 (0.23%) were called active. This list was built around the results that the source calls inconclusive (neither active nor inactive); the mix of calls is not that of the screen. The call rests on the fitted dose curve; in most records, active means well fitted inhibition curve with a large enough effect; inconclusive means small, poorly fitted or top-dose-only effect; inactive means no such curve, though single readings can be large or run the other way. Potencies beside an inconclusive call are fits to weak or partial responses and may not hold up.

Protein sequences, listed by entry. Tags and fused reporters are not part of them. Lines headed by an entry give the natural chain unless they say otherwise; changes in a name come on top.
UniProt O94782: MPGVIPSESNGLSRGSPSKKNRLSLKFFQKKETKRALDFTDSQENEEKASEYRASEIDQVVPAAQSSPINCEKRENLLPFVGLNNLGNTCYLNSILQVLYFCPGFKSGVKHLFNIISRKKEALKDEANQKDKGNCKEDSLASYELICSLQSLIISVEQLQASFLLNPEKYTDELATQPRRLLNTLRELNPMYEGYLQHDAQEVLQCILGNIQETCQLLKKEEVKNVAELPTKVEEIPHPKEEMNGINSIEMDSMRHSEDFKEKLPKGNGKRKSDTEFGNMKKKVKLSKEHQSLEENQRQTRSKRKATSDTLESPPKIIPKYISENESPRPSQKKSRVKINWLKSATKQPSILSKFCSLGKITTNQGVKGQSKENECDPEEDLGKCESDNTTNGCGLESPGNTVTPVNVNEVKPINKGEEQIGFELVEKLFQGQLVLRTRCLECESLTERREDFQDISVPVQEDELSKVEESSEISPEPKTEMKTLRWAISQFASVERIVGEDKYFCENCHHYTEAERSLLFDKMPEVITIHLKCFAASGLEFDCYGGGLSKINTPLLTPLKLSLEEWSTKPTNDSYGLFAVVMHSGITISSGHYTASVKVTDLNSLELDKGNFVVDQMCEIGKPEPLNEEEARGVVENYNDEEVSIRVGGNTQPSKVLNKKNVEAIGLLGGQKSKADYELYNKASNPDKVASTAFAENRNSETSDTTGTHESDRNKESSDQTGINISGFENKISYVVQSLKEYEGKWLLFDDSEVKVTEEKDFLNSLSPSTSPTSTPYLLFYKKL

These compounds were tested against Ubiquitin carboxyl-terminal hydrolase 1 (Homo sapiens) (UniProt O94782) (assay: Inhibitors of USP1/UAF1: Primary Screen). Settings: recombinant USP1/UAF1, Ub-Rhodamine cleavage fluorescence; activity change, negative = inhibition: at 57.1 µM (top of the series).
Procedure, shortened: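 High-throughput fluorogenic screen: 1nM USP1/UAF1 complex, Ub-Rho substrate 150nM final, 50mM HEPES pH 7.8 with 0.5mM EDTA, 0.1 mg/ml BSA, 1mM TCEP and 0.01% Tween-20.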
Further: nearly all actives have a fitted effect of over 60% in size.
On the % scale 0 is the no-effect control and ±100 the full control effect; potency means the concentration at half of the fitted maximal effect.

Structure (SMILES)	activity change, negative = inhibition	Potency
C#CCOCCOCCOCCNc1nc(N2CCN(C(=O)CCCCCCCCCCNC(=O)[C@H](CCCCN)n3cc(CCCC(=O)O)nn3)CC2)nc(N2CCN(C(=O)CCCCCCCCCCNC(=O)[C@H](CCCN=C(N)N)n3cc(C[C@@H](C)CC)nn3)CC2)n1	inactive: -25.7%	–
Cc1ccc(NC(=O)c2cc(N3C(=O)CCC3=O)ccc2N2CCOCC2)cc1	inactive: -16.6%	–
CC(=O)NC(NC(=S)Nc1c(C)n(C)n(-c2ccccc2)c1=O)C(Cl)(Cl)Cl (stereo not drawn)	–	inconclusive: 8.91 µM [inhibitor, partial curve]
Cc1cc(C)c(C)c(OCCNCc2ccccc2)c1	inactive: -23.6%	–
O=[N+]([O-])c1ccc(/C=N/N=C/c2ccc([N+](=O)[O-])o2)o1	inactive: -9.08%	–
O=S1(=O)CCOC[C@H](CC2CCCCC2)N1Cc1ccccc1	inactive: -22.5%	–
CC1CCCN(CCCNC(=O)c2ccc3c(c2)N(Cc2ccc(F)cc2)C(=O)c2ccccc2S3=O)C1 (stereo not drawn)	inactive: -7.55%	–
CCOC(=O)NC(=O)CSc1nnc(C)s1	–	inconclusive: 0.355 µM [inhibitor, full curve, poor fit]
COCCn1c(SCC(=O)Nc2nnc(C)s2)nnc1-c1cc2ccccc2cc1O	inactive: -3.12%	–
CCCC(CCC)C(=O)Nc1cccc(-c2cn3cccnc3n2)c1	inactive: 12.7%	–
Cc1nn(-c2ccccc2)c(Cl)c1C1C(C#N)=C(N)Oc2n[nH]c(C)c21 (stereo not drawn)	inactive: -13.1%	–
CCOC(=O)C1CCCN(C(=O)Cn2ncc3c([nH]c4ccc(C)cc43)c2=O)C1 (stereo not drawn)	–	inconclusive: 5.01 µM [inhibitor, partial curve]
CC(=O)c1ccc(-c2ccc(-c3cc(=O)oc4c(C(C)C)ccc(C)c34)cc2)cc1	inactive: -5.34%	–
C[C@H]1CN([C@@H](C)CO)S(=O)(=O)c2ccc(-c3cncnc3)cc2O[C@H]1CN(C)C(=O)NC1CCCC1	–	inconclusive: 0.794 µM [inhibitor, full curve, poor fit]
COCCCn1c(O)c(/C=C2\N=C(C#N)C(=Nc3ccc(C)cc3)O2)sc1=S	inactive: -22.9%	–
CC12CCCC(=O)C1CCC(=Cc1ccco1)C2=O (stereo not drawn)	–	inconclusive: 3.98 µM [inhibitor, single point]
COc1cccc(/C=C/c2ccc3ccccc3n2)c1OC(C)=O	–	inconclusive: 39.8 µM [inhibitor, partial curve, poor fit]
Nc1nc(N)c(N=Nc2ccc(C(=O)O)cc2)c(N)n1	inactive: -12.7%	–
CN1C(=O)c2cccc3c(N)ccc(c23)C1=O	–	active: 4.47 µM
CCc1nc(Nc2ccccc2O)c2oc3ccccc3c2n1	inactive: -14.9%	–
Cc1nnc(NC(=O)/C=C/c2ccco2)s1	–	inconclusive: 7.08 µM [inhibitor, partial curve, poor fit]
O=C1NC[C@@H](c2ccccc2)OC(=O)[C@H](Cc2ccc(F)cc2)CC/C=C/C[C@H]1CC(=O)N(CCO)Cc1ccccc1	–	inconclusive: 5.62 µM [inhibitor, full curve, poor fit]
CC(=Nc1ccccc1O)c1sc2ccccc2c1O	–	inconclusive: 44.7 µM [inhibitor, partial curve, poor fit]

Structure (SMILES)	activity change, negative = inhibition	Potency
Cc1ccc(-c2csc(NC(=O)c3cccc(N4C(=O)CCC4=O)c3)n2)o1	inactive: -18.3%	–
CC1Cc2cc(-c3csc(NC(=O)Cc4ccccc4)n3)ccc2N1S(C)(=O)=O (stereo not drawn)	–	inconclusive: 0.251 µM [inhibitor, full curve]
CCc1ccc(CNC(=O)C2CCN(C(=O)N3CC(CC)Oc4ccc(C)cc43)CC2)cc1 (stereo not drawn)	inactive: -17.6%	–
CCCCN(CCCC)CCNC(=O)c1cc(=O)[nH]c2ccc(S(=O)(=O)N3CCCCCC3)cc12	inactive: -9.44%	–
CC(=O)Nc1ccc(S(=O)(=O)NC2=C(N3CCN(C)CC3)C(=O)c3ccccc3C2=O)cc1	–	inconclusive: 35.5 µM [inhibitor, partial curve]
COc1ccc(/C=C/C(=O)OCC(=O)c2ccc(S(=O)(=O)N3CCCCC3)cc2)cc1OC	inactive: -18.8%	–
O=[N+]([O-])CC(=Nc1ccc(Cl)cc1)N/N=C\c1oc(O)c2ccccc12	–	inconclusive: 35.5 µM [inhibitor, partial curve]
COc1ccc(OCc2cc(C(=O)N(C)Cc3cc(C)no3)no2)c(Cl)c1	inactive: -25.4%	–
CCOc1ccccc1NC(=S)N(CCCN1CCOCC1)Cc1cn(C)c2ccccc12	inactive: -3.92%	–
CC(=O)Oc1ccc(C(=O)Cc2ccccn2)c(O)c1	–	inconclusive: 0.794 µM [inhibitor, full curve, poor fit]
O=C(Nc1cccc(C(F)(F)F)c1)Nc1ccc2snnc2c1	–	inconclusive: 79.4 µM [inhibitor, partial curve, poor fit]
C[C@H](NC(=O)c1nc[nH]c1C(=O)N1CCNCC1)C(=O)OCc1ccccc1	–	inconclusive: 0.282 µM [inhibitor, full curve, poor fit]
COc1ccc(-c2ccc3c(c2)O[C@H](CN(C)C(=O)Nc2ccccc2F)[C@@H](C)CN([C@H](C)CO)S3(=O)=O)cc1	–	inconclusive: 0.251 µM [inhibitor, full curve, poor fit]
O=C(O)c1ccc2c3c(ncnc13)-c1ccccc1C2=O	inactive: -22.8%	–
Cc1cc(C)nc(/N=c2/ssnc2Cl)c1	inactive: -26.3%	–
CCCCn1c(-c2cccnc2)nc2cc3[nH]c(=O)c(C(C)C)nc3cc21	–	inconclusive: 7.08 µM [inhibitor, partial curve]
CC/C(=N\NC(=S)Nc1cc(C)ccc1C)c1ccc(OC(F)F)cc1	–	inconclusive: 31.6 µM [inhibitor, partial curve]
CC(=O)c1ccc(-n2nnnc2SCC(=O)N2CCc3ccccc3C2)cc1	–	inconclusive: 31.6 µM [inhibitor, partial curve]
CCS(=O)(=O)c1cccc(C(=O)Nc2ccc(-c3nc4ccccc4s3)c(O)c2)c1	–	inconclusive: 20 µM [inhibitor, partial curve]
CCCSc1nc2sc3c(c2c(=O)n1-c1ccc(C)c(Cl)c1)CCN(C(C)=O)C3	–	inconclusive: 12.6 µM [inhibitor, partial curve]
S=c1[nH]nc(-c2cc(-c3ccsc3)n[nH]2)n1-c1cccc2ccccc12	–	inconclusive: 14.1 µM [inhibitor, partial curve]
COc1cccc2sc(Nc3nc4ccc(NC(C)=O)cc4s3)nc12	–	inconclusive: 44.7 µM [inhibitor, partial curve, poor fit]
CCN1CCN(c2ccc(S(=O)(=O)N3CCCCC3)cc2NC(=O)/C=C/c2ccc(OC(F)F)cc2)CC1	inactive: -4.86%	–

Structure (SMILES)	activity change, negative = inhibition	Potency
COC(=O)C1=CN(Cc2ccc(OC)cc2)C=C(C(=O)OC)C1c1cc(OC)c(OC)c(OC)c1	–	inconclusive: 25.1 µM [inhibitor, partial curve]
COc1cccc(C(=O)NC2CC3CCCC(C2)N3CC(=O)Nc2ccc(N(C)C)cc2)c1 (stereo not drawn)	inactive: -20.2%	–
CCN(CC)S(=O)(=O)c1ccc2oc(Nc3ccccc3)nc2c1	–	inconclusive: 31.6 µM [inhibitor, partial curve]
Cc1cccn2c(=O)cc(COc3cccc(NC(=O)c4cccc(Cl)c4)c3)nc12	inactive: -6.35%	–
COc1ccc(S(=O)(=O)N=Nc2c(O)[nH]c3ccccc23)cc1	inactive: -22.3%	–
COc1ccc(S(=O)(=O)c2c(O)c(C)cc(NC(=O)c3ccccc3)c2C(C)C)cc1	–	inconclusive: 22.4 µM [inhibitor, partial curve]
COc1ccccc1N1CCN(C(=O)c2ccc(Nc3nc4ccccc4n4nnnc34)cc2)CC1	–	inconclusive: 25.1 µM [inhibitor, partial curve]
CCOC(=O)C1C(=O)C=C(c2ccc(NS(C)(=O)=O)cc2)CC1c1ccco1 (stereo not drawn)	–	inconclusive: 0.398 µM [inhibitor, full curve, poor fit]
Oc1ccc(C[C@H]2CNCCN2CCc2cc(C(F)(F)F)cc(C(F)(F)F)c2)cc1	inactive: -15.4%	–
CCc1cc2cc(OC)ccc2nc1SCC(=O)NNC(=O)c1ccco1	–	inconclusive: 1 µM [inhibitor, full curve, poor fit]
CC(=O)c1ccc(NC2=C(N3CCOCC3)C(=O)c3ccccc3C2=O)cc1	–	inconclusive: 50.1 µM [inhibitor, partial curve, poor fit]
COc1ccc(C(=O)Nc2nc(-c3ccc(OC)cc3)c(-c3ccc([N+](=O)[O-])cc3)s2)cc1	–	inconclusive: 35.5 µM [inhibitor, single point]
C=CC[C@@H](Cc1ccc(F)cc1)C(=O)OC[C@@H]1CCCN1C(=O)[C@H](CC=C)CC(=O)N(CCO)Cc1ccccc1	–	inconclusive: 5.01 µM [inhibitor, partial curve]
COc1cc(OC)c(NC(=O)c2ccc3c(c2)N(Cc2ccc(C)cc2)CCS3)cc1Cl	inactive: -20%	–
Cc1ccc(CSC2=Nc3ccccc3C3=NC(CC(=O)NCc4ccc5c(c4)OCO5)C(=O)N23)cc1 (stereo not drawn)	–	inconclusive: 44.7 µM [inhibitor, partial curve, poor fit]
CCc1ccc(C(=O)c2cn(CC(=O)Nc3ccc4c(c3)OCO4)c3ccc(F)cc3c2=O)cc1	inactive: -7.94%	–
Brc1ccc(N=Cc2ccccn2)cc1	inactive: -13.6%	–
CN1C2CCC1/C(=C/c1cccn1C)C(=O)/C2=C\c1cccn1C	–	active: 28.2 µM
Cc1ccc([N+](=O)[O-])cc1N=Nc1c(-c2ccc([N+](=O)[O-])cc2)[nH]n(C(N)=S)c1=O	inactive: -22.8%	–
Clc1ccc2nc(-c3cccc(SC4CCCCC4)c3)c(NCc3ccccc3)n2c1	–	inconclusive: 5.62 µM [inhibitor, full curve, poor fit]
CC1(C)Cc2c(sc3nc(-c4cccs4)n(N)c(=O)c23)CO1	inactive: -17.3%	–
Cc1[nH]c2ccccc2c1Cc1nnc(SCc2ccccc2)o1	–	inconclusive: 44.7 µM [inhibitor, partial curve]

Individual results from the entries so far:
Entry of `CC1(C)Cc2c(sc3nc(-c4cccs4)n(N)c(=O)c23)CO1` under activity change, negative = inhibition: inactive: -17.3%
Entry of `CCc1cc2cc(OC)ccc2nc1SCC(=O)NNC(=O)c1ccco1` under Potency: inconclusive: 1 µM [inhibitor, full curve, poor fit]
Entry of `COc1ccccc1N1CCN(C(=O)c2ccc(Nc3nc4ccccc4n4nnnc34)cc2)CC1` under Potency: inconclusive: 25.1 µM [inhibitor, partial curve]
Entry of `CCN(CC)S(=O)(=O)c1ccc2oc(Nc3ccccc3)nc2c1` under Potency: inconclusive: 31.6 µM [inhibitor, partial curve]
Entry of `COc1cccc(C(=O)NC2CC3CCCC(C2)N3CC(=O)Nc2ccc(N(C)C)cc2)c1` (stereo not drawn) under activity change, negative = inhibition: inactive: -20.2%
